Measured values published in patent publication US20140329755A1, “COMBINATION THERAPY FOR THE TREATMENT OF ARRHYTHMIAS OR HEART FAILURE” (Gilead Sciences, Inc., priority 2013, published 2014).
Some of these results come from one statement about several compounds together. Some ranges recur; such a range may be that of the whole group of compounds.

System: CaMKII
Assay: Western blot of ATX-II-induced CaMKII phosphorylation
Settings: 3 μmol/L ranolazine, 100 nmol/L GS967, 300 nmol/L KN-93, 300 nmol/L AIP individually

## FC(F)(F)Oc1ccc(-c2ccc3nnc(C(F)(F)F)n3c2)cc1 [GS-967, 6-[4-(trifluoromethoxy)phenyl]-3-(trifluoromethyl)[1,2,4]triazolo[4,3-a]pyridine]
  inhibition of ATX-II-induced CaMKII phosphorylation: 20-30%

## COc1ccc(S(=O)(=O)N(CCO)c2ccccc2CN(C)C/C=C/c2ccc(Cl)cc2)cc1 [KN-93]
  inhibition of ATX-II-induced CaMKII phosphorylation: 20-30%
